# Measured values taken from paper PMC3688854.
# No constants are given. Whether binding was seen depends on the method and setting. In cells and extracts the contact can be indirect. Some results given as binding are weak or reduced against the parent protein; the word gives no strength. Where a sequence is shown, tags or fusion partners need not be part of it.
# B1: Arabidopsis bZIP63, BiFC fusions (protein, UniProt B9DGI8 1-314)
# chain: MEKVFSDEEISGNHHWSVNGMTSLNRSASEWAFNRFIQESSAAADDGESTTACGVSVSSPPNVPVDSEEYRAFLKSKLNLACAAVAMKRGTFIKPQDTSGRSDNGGANESEQASLASSKATPMMSSAITSGSELSGDEEEADGETNMNPTNVKRVKRMLSNRESARRSRRRKQAHLSELETQVSQLRVENSKLMKGLTDVTQTFNDASVENRVLKANIETLRAKVKMAEETVKRLTGFNPMFHNMPQIVSTVSLPSETSNSPDTTSSQVTTPEIISSGNKGKALIGCKMNRTASMRRVESLEHLQKRIRSVGDQ
# Target: Arabidopsis bZIP63, BiFC fusions (Arabidopsis) (UniProt B9DGI8)
# Test: split reporter; BiFC with pE-SPYNE/pE-SPYCE constructs coexpressed in N. benthamiana leaves by Agrobacterium infiltration with the p19 silencing plasmid; YFP fluorescence in protoplasts by confocal microscopy
binder,measurement,value
B1,binding,binds
